From PMC6515687 come the findings set out here.

By UniProt entry, the sequences of proteins in these tests, tags left out.
UniProt Q501J6: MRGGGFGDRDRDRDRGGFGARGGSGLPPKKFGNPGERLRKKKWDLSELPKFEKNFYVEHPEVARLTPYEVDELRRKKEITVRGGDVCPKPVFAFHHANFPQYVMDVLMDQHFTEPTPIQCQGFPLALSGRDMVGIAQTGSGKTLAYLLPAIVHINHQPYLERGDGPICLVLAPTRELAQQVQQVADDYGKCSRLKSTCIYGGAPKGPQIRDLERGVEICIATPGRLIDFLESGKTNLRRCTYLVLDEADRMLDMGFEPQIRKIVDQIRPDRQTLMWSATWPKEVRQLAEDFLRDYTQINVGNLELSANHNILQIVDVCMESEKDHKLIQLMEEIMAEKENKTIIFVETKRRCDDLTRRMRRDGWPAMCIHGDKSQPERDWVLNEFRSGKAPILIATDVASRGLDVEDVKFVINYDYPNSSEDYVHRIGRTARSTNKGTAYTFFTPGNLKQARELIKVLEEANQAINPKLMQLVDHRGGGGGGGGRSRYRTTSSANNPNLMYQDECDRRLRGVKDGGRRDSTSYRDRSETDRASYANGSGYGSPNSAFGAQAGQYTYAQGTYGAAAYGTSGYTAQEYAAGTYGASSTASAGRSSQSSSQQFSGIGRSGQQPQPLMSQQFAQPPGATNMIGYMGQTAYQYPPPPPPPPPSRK
UniProt P70372: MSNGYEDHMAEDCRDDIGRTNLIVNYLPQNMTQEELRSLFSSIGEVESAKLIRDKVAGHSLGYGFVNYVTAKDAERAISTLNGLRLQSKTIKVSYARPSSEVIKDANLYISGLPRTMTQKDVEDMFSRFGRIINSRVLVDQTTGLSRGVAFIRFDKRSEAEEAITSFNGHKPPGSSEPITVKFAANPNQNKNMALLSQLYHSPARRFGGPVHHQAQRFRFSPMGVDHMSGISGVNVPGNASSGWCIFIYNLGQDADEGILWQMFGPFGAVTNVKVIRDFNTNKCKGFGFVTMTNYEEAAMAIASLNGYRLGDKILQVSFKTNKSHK
UniProt Q9Z204: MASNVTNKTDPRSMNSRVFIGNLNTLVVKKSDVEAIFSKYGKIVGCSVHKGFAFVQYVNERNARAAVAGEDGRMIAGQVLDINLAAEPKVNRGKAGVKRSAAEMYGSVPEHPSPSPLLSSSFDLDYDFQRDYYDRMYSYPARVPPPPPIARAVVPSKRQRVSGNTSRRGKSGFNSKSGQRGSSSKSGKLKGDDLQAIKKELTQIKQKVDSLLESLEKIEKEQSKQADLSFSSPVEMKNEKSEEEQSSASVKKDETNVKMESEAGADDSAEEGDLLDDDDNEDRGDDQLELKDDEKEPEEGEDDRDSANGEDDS
UniProt P29341: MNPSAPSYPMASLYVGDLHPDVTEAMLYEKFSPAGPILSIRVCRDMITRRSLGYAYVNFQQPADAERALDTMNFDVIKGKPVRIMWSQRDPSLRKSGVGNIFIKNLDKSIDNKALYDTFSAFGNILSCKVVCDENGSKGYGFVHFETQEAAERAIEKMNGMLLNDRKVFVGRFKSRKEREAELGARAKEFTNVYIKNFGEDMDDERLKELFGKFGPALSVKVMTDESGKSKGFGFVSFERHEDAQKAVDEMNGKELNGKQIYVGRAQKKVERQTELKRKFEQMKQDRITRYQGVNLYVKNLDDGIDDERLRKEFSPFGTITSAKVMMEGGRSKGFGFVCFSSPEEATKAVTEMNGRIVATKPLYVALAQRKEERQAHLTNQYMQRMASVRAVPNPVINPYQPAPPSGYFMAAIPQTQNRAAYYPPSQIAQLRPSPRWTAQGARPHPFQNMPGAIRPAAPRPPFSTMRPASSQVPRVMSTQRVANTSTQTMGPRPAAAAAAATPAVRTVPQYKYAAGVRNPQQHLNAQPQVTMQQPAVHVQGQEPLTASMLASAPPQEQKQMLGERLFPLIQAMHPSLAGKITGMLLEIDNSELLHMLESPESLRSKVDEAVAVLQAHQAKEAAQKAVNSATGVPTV
UniProt P62317: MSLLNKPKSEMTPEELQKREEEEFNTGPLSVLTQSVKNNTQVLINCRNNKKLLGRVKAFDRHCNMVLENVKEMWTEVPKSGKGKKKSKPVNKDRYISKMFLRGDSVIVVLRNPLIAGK
UniProt Q6PDM2: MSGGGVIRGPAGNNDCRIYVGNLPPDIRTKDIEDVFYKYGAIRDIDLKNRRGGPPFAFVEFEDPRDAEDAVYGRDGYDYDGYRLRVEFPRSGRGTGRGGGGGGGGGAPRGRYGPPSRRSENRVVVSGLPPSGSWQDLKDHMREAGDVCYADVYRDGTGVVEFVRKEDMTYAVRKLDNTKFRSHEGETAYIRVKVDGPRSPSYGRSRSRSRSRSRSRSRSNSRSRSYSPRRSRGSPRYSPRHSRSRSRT
UniProt Q9EPU0: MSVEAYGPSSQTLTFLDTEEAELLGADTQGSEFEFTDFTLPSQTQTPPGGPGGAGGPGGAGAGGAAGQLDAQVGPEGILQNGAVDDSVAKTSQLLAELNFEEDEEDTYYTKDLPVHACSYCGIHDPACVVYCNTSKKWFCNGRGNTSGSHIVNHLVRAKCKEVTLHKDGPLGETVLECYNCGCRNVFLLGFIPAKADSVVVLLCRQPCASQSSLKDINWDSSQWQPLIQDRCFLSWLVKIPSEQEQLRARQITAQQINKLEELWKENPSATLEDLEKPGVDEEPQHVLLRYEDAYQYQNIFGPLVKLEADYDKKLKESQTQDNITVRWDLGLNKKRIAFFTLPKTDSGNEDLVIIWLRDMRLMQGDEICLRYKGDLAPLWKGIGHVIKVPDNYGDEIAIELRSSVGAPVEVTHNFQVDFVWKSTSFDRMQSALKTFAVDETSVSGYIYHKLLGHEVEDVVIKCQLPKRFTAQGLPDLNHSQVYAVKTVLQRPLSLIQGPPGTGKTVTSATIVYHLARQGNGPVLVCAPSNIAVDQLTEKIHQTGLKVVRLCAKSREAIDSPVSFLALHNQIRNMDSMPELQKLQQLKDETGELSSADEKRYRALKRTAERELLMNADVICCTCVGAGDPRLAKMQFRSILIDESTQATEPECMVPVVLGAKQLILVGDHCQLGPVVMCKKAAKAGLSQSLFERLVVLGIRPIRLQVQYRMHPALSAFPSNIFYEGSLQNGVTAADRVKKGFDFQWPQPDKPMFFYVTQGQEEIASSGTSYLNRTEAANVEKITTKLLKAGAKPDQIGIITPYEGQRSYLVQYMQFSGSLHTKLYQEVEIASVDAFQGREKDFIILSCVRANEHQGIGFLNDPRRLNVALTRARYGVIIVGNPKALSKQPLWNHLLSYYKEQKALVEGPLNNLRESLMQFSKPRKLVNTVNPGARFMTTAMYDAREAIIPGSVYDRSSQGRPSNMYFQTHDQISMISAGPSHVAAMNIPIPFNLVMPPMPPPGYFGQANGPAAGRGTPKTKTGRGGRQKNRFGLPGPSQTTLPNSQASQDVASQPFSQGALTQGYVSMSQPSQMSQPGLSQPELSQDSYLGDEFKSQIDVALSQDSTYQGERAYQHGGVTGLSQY

Assay [1] addresses T1, MOV10 (Moloney leukemia virus 10), endogenous, nuclear fraction of P10 mouse testis (mouse (endogenous in P10 testis)) (UniProt P23249).
T1 sequence: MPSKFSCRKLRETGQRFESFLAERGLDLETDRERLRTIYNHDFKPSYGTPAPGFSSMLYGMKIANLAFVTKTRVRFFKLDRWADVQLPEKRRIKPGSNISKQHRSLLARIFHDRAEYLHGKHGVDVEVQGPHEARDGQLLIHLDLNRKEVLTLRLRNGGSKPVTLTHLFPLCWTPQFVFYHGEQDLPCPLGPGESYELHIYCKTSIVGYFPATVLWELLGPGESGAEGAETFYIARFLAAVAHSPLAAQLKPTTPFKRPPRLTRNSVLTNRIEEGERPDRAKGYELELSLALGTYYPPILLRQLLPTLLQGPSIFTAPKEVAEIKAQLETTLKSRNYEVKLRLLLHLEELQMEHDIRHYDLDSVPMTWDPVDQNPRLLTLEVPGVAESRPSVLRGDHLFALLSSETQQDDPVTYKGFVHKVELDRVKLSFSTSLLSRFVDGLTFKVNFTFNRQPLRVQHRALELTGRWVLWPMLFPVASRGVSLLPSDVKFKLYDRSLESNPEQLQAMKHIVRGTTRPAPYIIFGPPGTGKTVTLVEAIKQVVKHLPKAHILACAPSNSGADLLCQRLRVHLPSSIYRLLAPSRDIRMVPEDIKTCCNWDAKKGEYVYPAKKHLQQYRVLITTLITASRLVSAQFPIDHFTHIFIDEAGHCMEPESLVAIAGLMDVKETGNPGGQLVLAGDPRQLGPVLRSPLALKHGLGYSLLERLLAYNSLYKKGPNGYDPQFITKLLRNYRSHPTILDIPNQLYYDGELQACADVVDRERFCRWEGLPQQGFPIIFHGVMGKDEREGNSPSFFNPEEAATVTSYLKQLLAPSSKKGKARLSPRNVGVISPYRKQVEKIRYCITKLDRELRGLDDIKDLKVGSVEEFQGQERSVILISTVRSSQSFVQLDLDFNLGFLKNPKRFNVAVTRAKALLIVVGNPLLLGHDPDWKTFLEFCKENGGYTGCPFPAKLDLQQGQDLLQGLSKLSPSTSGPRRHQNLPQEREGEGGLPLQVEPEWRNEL
The assay can be described thus: affinity purification with mass spectrometry; endogenous MOV10 IP from nuclear lysate of P10 mouse testis in RIPA, CHAPS or gentle lysis buffer with 10 μg/ml RNase A/T1; proteins found in the original IP-MS and in at least one RNase-treated IP-MS.

The target of assay [2] is T1, MOV10 (Moloney leukemia virus 10), endogenous, nuclear fraction of P10 mouse testis (mouse (endogenous in P10 testis)). The assay can be described thus: affinity purification with mass spectrometry; endogenous MOV10 IP (rabbit anti-MOV10, Protein A agarose, overnight 4 °C) from nuclear lysate of P10 mouse testis in RIPA buffer without RNase; rabbit IgG control; SDS-PAGE, MS.

Results are given in words; binding and its absence hold for the method and conditions named. Binding seen in cells or lysates may run through a third protein. These calls come from enrichment with a bait or labelling near it, and not all partners need be listed. For some of these results: A no says only that the protein was not detected with the bait.

As to “DDX17, endogenous, P10 mouse testis (from UniProt Q501J6 1-650)”, the binding result in assay [1] and in assay [2] was “binds” each time.
“ELAVL1, endogenous, P10 mouse testis (from UniProt P70372 1-326)”: the binding result in assay [2] is “binds”.
Take “HNRNPC, endogenous, P10 mouse testis (from UniProt Q9Z204 1-313)”: the binding entry in assay [2] is “binds”.
Still for that read-out and setting: for “PABPC1, endogenous, P10 mouse testis (from UniProt P29341 1-636)” the value was “binds”; for “SNRPD2, endogenous, P10 mouse testis (from UniProt P62317 1-118)”, “binds”.
Consider “SRSF1, endogenous, P10 mouse testis (from UniProt Q6PDM2 1-248)”, for which the binding result in assay [1] and in assay [2] was “binds” in each case.
Regarding “UPF1, endogenous, P10 mouse testis (from UniProt Q9EPU0 1-1124)”, the binding entry in assay [2] is “binds”.

B1: DGCR8, endogenous, P10 mouse testis (protein, UniProt Q9EQM6 1-773)
chain: METYESPSPLPREPAGEAMMENRACPFQVLPHEQSPPPPLQTSSDAEVMDVGSGGDGQSEPPADDPFNFYGASLLSKGSFSKGRLLIDPNCSGHSPRTARHAPAVRKFSPDLKLLKDVKISVSFTESCRSKDRKVLYTGVERSTRPECGQLLSPVSGDVHACPFGGSVGNGVGLGGESADKKDEENELDQEKRVEYAVLDELEDFTDNLELDEEGTGGFTAKAIVQRDRVDEEALNFSYEDDFDNDVDALLEEGLCAPKKRRMEEKYGGDSDHPSDGETSVQPMMTKIKTVLKSRGRPPTEPLPDGWIMTFHNSGVPVYLHRESRVVTWSRPYFLGTGSIRKHDPPLSSIPCLHYKKMKDNEEREQNCDLAPSGEVSPVKPLGRSAELDFPLEEPDSMGGDSGSMDEKDPLGAEAAAGALGQVKAKVEVCKDESVDLEEFRNYLEKRFDFEQVTVKKFRTWAERRQFNREMKRKQAESERPILPANQKLITLSVQDAPTKKEFVINPNGKSEVCILHEYMQRVLKVRPVYNFFECENPSEPFGASVTIDGVTYGSGTASSKKLAKNKAARATLEILIPDFVKQTSEEKPKDSEELEYFNHISIEDSRVYELTSKAGLLSPYQILHECLKRNHGMGDTSIKFEVVPGKNQKSEYVMACGKHTVRGWCKNKRVGKQLASQKILQLLHPHVKNWGSLLRMYGRESSKMVKQETSDKSVIELQQYAKKNRPNLHILSKLQEEMKRLAAEREETRKKPKMSIVASAQPGGEPLCTVDV
With B1, in assay [2], the binding entry was “no binding”.

B2: SYNCRIP, endogenous, P10 mouse testis (protein, UniProt Q7TMK9 1-623)
chain: MATEHVNGNGTEEPMDTTSAVIHSENFQTLLDAGLPQKVAEKLDEIYVAGLVAHSDLDERAIEALKEFNEDGALAVLQQFKDSDLSHVQNKSAFLCGVMKTYRQREKQGTKVADSSKGPDEAKIKALLERTGYTLDVTTGQRKYGGPPPDSVYSGQQPSVGTEIFVGKIPRDLFEDELVPLFEKAGPIWDLRLMMDPLTGLNRGYAFVTFCTKEAAQEAVKLYNNHEIRSGKHIGVCISVANNRLFVGSIPKSKTKEQILEEFSKVTEGLTDVILYHQPDDKKKNRGFCFLEYEDHKTAAQARRRLMSGKVKVWGNVGTVEWADPIEDPDPEVMAKVKVLFVRNLANTVTEEILEKSFSQFGKLERVKKLKDYAFIHFDERDGAVKAMEEMNGKDLEGENIEIVFAKPPDQKRKERKAQRQAAKNQMYDDYYYYGPPHMPPPTRGRGRGGRGGYGYPPDYYGYEDYYDYYGYDYHNYRGGYEDPYYGYEDFQVGARGRGGRGARGAAPSRGRGAAPPRGRAGYSQRGGPGSARGVRGARGGAQQQRGRGVRGARGGRGGNVGGKRKADGYNQPDTKRRQTNNQNWGSQPIAQQPLQGGDHSGNYGYKSENQEFYQDTFGQQWK
As to B2, the binding result in assay [2] is on record as “binds”.

B3: SNRPA1, endogenous, P10 mouse testis (protein, UniProt P57784 1-255)
chain: MVKLTAELIEQAAQYTNAVRDRELDLRGYKIPVIENLGATLDQFDAIDFSDNEIRKLDGFPLLRRLKTLLVNNNRICRIGEGLDQALPCLTELILTNNSLVELGDLDPLASLKSLTYLSILRNPVTNKKHYRLYVIYKVPQVRVLDFQKVKLKERQEAEKMFKGKRGAQLAKDIARRSKTFNPGAGLPTDKKKGGPSAGDVEAIKNAIANASTLAEVERLKGLLQSGQIPGRERRSGPSDEGEEEIEDDTVTNGS
Consider B3, for which the binding result in assay [2] is reported as “binds”.

B4: DROSHA, endogenous, P10 mouse testis (protein, UniProt Q5HZJ0 1-1373)
chain: MQGNTCHRMSYHPGRGCPRGRGGHGARPSAPAFRPQNLRLLHPQQPPAQYQYEPPSAPSSSYSNSQAPSFMPPRPDFVPYPPPAAPSAQGPLPPCPVRPPYPNHQMRHPFPVPPCFPPMPPPMPCPNNPPASGAPPGQGTFPFMVPPPSMPHPPPPPVMPQQVNYQYPPGYSHSFPPPGFNSYQNNSSSFPPSANSSSTPHFRHLPPYSLPKAQNERRSPERLKHYDDHRHRDHSHGRGERHRSLERRERGRSPERRRPESRYRSDYDRGRTPPPRHRSYERSRERDRERHRHREARRSPSLERSYKKEYKRSGRSYALPVAPEPAGCTPELPGEMIKTTESWAPPPENVNHRSPSREKKRARWEEEKDRWSDSQGSGKEKNYTSIKEKEAEEVPPEKTEEEEEELLKPVWIRCTHSESYYSSDPMDQVGDSTVVGTSRLRDLYDKFEEELGNRQEKAKAARPPWEPPKTKLDEDLESSSESECETDDDSTCSSSSDSEVFDVIAEIKRKKAHPDRLHDELWYNDPGQMNDGPLCKCSAKARRTGIRHSIYPGEEAIKPCRPMTNNAGRLFHYRITVSPPTNFLTDRPTVIEYDDHEYIFEGFSMFAHAPLTNIPLCKVIRFNIDYTIHFIEEMMPENFCVKGLELFSLFLFRDILELYDWNLKGPLFEDSPPCCPRFHFMPRFVRFLPDGGKEVLSMHQILLYLLRCSKALVPEEEIANMLQWEELEWQKYAEECKGMIVTNPGTKPSSVRIDQLDREQFNPEVITFPIIVHFGIRPAQLSYAGDPQYQKLWKSYVKLRHLLANSPKVKQTDKQKLAQREEALQKIRQKNTMRREVTVELSSQGFWKTGIRSDVCQHAMMLPVLTHHIRYHQCLMHLDKLIGYTFQDRCLLQLAMTHPSHHLNFGMNPDHARNSLSNCGIRQPKYGDRKVHHMHMRKKGINTLINIMSRLGQDDPTPSRINHNERLEFLGDAVVEFLTSVHLYYLFPSLEEGGLATYRTAIVQNQHLAMLAKKLELDRFMLYAHGPDLCRESDLRHAMANCFEALIGAVYLEGSLEEAKQLFGRLLFNDPDLREVWLNYPLHPLQLQEPNTDRQLIETSPVLQKLTEFEEAIGVIFTHVRLLARAFTLRTVGFNHLTLGHNQRMEFLGDSIMQLVATEYLFIHFPDHHEGHLTLLRSSLVNNRTQAKVAEELGMQEYAITNDKTKRPVALRTKTLADLLESFIAALYIDKDLEYVHTFMNVCFFPRLKEFILNQDWNDPKSQLQQCCLTLRTEGKEPDIPLYKTLQTVGPSHARTYTVAVYFKGERIGCGKGPSIQQAEMGAAMDALEKYNFPQMAHQKRFIERKYRQELKEMRWEREHQEREPEEAEDIKK
Turning to B4, the binding entry in assay [2] is listed as “no binding”.
